Measured values reported in patent US20070257975A1, “Azo Compound, Ink Composition, and Colored Object” (priority 2004, published 2007).

Assays:
[1] = Bronzing property, surface observation of maximum-density printed part on special glossy paper
[2] = Ejection property on thermal-head inkjet printer (BJ-S630), continuous printing on plain paper; settings: printer having a thermal head

SMILES	Bronzing (in words) [1]	Ejection property (in words) [2]
Cc1cc(Nc2nc(NCCS(=O)(=O)O)nc(Nc3ccc(N=Nc4ccc(N=Nc5ccc(S(=O)(=O)O)cc5)cc4S(=O)(=O)O)c(C)c3)n2)ccc1N=Nc1ccc(N=Nc2ccc(S(=O)(=O)O)cc2)cc1S(=O)(=O)O [Example 1]	do not give rise to bronzing	good
Cc1cc(Nc2nc(Nc3ccc(N=Nc4ccc(N=Nc5ccc(S(=O)(=O)O)cc5)cc4S(=O)(=O)O)c(C)c3)nc(N(CC(=O)O)CC(=O)O)n2)ccc1N=Nc1ccc(N=Nc2ccc(S(=O)(=O)O)cc2)cc1S(=O)(=O)O [Example 2]	do not give rise to bronzing	good
